Reference: paper PMC5006984

Experiments:
human MICB (human) [1] = target: T1, human MICB (human) (UniProt Q29980); test: co-IP; U373-MICB or U373-ULBP3 cells lysed 48 h post-transduction with AdRh159FL or FLAG-SVV ORF 61 adenovector; immunoprecipitation with anti-MICB or anti-ULBP3 antibodies, immunoblot with anti-FLAG mAb
T1 sequence: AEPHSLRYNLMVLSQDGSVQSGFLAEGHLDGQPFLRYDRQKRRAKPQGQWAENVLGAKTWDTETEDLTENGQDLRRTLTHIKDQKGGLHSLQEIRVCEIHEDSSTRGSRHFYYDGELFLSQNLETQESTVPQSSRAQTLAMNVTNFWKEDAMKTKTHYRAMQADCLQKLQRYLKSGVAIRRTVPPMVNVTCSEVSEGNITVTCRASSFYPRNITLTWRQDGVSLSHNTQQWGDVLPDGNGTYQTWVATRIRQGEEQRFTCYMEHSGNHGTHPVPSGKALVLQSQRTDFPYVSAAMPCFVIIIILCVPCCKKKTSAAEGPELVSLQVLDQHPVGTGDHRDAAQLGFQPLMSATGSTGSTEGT

human ULBP3 (human) = target: T2, human ULBP3 (human) (UniProt Q9BZM5); test: as above
T2 sequence: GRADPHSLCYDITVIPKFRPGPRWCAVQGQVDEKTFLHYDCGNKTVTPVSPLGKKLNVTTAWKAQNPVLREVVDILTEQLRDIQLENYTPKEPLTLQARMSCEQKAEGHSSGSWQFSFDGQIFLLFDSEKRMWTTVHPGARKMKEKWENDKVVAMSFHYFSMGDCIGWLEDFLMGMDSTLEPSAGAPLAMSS

human MICB (human) [2] = target: T1, human MICB (human); test: co-IP; anti-MICB mAb immunoprecipitation from lysates of U373-MICB cells (RhCMV-infected or adenovector-transduced, 24 h) pulse-labelled 30 min with [35S]cysteine/[35S]methionine and chased 0-3 h; with or without EndoH; SDS-PAGE and autoradiography

Row | Substance | binding (human MICB (human) [1]) | binding (human ULBP3 (human)) | binding (human MICB (human) [2])
1 | FLAG-tagged Simian varicella virus (SVV) open reading frame (ORF) 61 | no binding | no binding | –
2 | FLAG-tagged Rh159 (AdRh159FL) (rhesus cytomegalovirus (RhCMV)) | binds | no binding | binds
3 | RhCMV Rh159 (expressed from RhCMV 68-1 in infected cells) | – | – | binds

Results are given in words; binding and its absence hold for the method and conditions named. Binding seen in cells or lysates may run through a third protein. For part of these data: Binding calls can cover weak binding; strength is not graded here.
